Laboratory results: the supplement of paper PMC6411743
± gives the standard deviation of the averaged measurements. The entries are a selection whose mix differs from that of the whole data set. Most values lie at the level of the controls, where differences are scatter.

The chains behind the UniProt entries cited, without tags or fusion partners. Where a name states a change or a piece, a line headed by the entry shows the natural chain unless it says otherwise.
UniProt Q5JU69: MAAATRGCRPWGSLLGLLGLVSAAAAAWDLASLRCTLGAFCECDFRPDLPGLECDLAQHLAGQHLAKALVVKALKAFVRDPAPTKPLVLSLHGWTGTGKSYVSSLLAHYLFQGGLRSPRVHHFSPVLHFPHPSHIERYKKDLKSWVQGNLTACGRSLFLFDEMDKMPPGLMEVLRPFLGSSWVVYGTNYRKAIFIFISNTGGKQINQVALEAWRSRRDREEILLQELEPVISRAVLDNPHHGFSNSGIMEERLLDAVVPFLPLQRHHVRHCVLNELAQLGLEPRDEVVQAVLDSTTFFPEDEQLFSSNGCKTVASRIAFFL
UniProt Q5T0F9: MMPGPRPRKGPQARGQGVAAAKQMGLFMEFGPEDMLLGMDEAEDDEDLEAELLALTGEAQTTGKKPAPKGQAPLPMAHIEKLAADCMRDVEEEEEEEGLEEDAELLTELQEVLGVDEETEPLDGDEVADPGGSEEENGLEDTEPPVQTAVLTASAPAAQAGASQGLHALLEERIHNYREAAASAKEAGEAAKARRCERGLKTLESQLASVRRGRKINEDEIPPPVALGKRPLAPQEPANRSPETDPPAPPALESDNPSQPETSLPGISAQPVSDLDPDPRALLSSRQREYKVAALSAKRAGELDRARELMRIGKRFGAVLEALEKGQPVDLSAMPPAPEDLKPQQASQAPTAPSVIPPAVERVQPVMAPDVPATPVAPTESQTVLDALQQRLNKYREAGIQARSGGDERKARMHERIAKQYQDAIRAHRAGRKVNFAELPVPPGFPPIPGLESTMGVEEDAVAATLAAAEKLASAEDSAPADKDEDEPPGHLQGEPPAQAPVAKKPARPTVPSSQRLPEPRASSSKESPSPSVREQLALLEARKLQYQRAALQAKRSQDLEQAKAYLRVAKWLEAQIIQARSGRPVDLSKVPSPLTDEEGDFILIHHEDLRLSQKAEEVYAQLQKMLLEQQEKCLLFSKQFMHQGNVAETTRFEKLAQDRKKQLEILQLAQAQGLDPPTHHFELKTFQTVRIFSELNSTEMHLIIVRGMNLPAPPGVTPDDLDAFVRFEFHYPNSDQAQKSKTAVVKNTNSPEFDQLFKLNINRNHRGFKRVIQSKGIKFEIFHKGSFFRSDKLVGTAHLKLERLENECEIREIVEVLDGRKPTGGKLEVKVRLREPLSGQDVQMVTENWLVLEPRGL
UniProt Q5JSZ5: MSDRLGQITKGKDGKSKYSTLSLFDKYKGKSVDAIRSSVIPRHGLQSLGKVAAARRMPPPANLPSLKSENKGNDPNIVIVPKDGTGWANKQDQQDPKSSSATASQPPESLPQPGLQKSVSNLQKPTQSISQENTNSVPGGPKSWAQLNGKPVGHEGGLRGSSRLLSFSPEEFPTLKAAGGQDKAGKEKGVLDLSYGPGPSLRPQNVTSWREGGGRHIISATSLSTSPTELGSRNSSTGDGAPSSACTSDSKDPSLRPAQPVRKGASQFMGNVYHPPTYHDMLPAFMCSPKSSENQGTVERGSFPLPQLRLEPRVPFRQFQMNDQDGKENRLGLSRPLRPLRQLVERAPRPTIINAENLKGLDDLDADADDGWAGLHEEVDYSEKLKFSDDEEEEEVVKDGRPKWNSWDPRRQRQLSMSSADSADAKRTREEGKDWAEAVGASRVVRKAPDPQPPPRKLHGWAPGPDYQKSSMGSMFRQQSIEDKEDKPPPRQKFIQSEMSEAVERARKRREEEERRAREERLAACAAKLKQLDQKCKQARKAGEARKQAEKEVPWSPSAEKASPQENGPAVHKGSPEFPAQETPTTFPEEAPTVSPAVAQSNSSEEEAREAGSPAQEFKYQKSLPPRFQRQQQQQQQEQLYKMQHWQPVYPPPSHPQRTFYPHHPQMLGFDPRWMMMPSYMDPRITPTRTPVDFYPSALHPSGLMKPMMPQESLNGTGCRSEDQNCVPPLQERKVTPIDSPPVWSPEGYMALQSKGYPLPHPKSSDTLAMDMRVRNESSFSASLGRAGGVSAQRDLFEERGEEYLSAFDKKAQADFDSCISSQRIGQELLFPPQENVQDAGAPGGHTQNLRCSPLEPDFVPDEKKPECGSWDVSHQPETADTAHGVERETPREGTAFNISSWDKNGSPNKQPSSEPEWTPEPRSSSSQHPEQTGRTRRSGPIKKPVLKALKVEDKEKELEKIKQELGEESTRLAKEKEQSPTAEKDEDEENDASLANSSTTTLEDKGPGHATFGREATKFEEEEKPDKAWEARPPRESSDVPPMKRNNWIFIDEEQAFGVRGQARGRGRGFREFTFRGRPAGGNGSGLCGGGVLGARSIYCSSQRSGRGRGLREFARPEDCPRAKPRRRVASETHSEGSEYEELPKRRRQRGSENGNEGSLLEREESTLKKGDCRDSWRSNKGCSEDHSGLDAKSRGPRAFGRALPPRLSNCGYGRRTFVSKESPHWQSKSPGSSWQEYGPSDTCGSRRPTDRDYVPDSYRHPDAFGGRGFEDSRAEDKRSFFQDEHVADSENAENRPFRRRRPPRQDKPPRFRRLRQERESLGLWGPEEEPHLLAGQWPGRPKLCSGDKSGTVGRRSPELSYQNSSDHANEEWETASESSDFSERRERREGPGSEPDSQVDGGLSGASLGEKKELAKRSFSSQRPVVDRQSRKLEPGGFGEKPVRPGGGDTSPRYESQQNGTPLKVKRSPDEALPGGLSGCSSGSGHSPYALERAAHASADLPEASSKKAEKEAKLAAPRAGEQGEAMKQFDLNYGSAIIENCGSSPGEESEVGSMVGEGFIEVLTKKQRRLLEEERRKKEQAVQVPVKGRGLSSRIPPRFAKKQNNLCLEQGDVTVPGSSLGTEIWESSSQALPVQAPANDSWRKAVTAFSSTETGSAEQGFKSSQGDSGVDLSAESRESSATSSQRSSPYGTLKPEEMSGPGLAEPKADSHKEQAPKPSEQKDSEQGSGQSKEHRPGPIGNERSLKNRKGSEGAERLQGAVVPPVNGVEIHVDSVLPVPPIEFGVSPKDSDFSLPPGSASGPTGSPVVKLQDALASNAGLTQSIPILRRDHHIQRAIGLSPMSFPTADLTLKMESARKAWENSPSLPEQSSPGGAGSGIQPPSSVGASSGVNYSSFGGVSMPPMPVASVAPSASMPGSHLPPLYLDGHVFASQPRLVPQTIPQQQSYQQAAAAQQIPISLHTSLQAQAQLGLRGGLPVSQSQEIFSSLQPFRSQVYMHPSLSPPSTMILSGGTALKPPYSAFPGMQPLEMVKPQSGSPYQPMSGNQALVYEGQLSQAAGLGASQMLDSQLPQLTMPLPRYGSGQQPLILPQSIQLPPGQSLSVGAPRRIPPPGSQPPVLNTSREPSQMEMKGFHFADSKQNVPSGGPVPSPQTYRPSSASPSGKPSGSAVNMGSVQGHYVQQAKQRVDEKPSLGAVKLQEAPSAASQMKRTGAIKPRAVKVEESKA
UniProt Q6P1X6: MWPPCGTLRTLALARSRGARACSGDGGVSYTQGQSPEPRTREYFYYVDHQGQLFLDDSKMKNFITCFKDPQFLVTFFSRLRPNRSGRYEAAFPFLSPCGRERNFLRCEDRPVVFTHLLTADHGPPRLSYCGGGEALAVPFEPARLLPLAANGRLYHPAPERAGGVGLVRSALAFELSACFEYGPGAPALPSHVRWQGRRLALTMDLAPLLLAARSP
UniProt P29144: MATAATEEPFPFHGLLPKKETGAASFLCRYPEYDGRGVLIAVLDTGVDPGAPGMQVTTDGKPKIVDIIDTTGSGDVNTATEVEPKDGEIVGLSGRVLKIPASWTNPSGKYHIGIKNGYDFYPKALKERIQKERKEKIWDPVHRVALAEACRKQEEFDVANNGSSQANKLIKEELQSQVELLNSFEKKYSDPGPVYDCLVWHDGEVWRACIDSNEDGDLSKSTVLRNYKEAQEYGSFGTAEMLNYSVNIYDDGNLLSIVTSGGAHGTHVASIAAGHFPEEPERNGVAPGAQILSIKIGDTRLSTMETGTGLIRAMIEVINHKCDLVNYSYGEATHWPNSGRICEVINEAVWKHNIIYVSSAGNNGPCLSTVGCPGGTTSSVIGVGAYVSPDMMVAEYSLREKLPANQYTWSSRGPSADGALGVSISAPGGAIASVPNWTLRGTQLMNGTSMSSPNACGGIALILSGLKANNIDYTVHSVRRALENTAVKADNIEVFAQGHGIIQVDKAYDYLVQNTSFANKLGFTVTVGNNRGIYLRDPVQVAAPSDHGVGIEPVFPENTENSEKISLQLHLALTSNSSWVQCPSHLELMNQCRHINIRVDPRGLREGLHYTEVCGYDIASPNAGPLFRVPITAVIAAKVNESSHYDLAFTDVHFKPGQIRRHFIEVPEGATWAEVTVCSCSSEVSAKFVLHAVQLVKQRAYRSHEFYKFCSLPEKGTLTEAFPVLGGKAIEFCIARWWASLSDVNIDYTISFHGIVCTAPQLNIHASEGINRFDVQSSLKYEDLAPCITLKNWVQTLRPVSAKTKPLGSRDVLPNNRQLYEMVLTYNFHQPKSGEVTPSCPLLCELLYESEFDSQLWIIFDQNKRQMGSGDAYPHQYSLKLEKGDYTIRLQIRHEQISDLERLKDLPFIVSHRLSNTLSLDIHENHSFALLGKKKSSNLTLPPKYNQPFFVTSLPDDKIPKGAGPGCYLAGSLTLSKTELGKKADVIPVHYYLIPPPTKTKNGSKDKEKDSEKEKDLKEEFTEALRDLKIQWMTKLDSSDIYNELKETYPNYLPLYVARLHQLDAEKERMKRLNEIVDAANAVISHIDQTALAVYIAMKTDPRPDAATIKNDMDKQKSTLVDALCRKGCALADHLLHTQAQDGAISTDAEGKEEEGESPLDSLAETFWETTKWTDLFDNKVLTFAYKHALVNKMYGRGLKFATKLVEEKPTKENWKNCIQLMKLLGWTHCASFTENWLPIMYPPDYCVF
UniProt Q6I9Y2: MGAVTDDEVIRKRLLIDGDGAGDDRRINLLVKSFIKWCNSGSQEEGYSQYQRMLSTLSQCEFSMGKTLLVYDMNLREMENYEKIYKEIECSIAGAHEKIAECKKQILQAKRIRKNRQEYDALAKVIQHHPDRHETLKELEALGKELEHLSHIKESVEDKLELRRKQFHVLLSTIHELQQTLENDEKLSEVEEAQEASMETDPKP
UniProt Q5D1E8: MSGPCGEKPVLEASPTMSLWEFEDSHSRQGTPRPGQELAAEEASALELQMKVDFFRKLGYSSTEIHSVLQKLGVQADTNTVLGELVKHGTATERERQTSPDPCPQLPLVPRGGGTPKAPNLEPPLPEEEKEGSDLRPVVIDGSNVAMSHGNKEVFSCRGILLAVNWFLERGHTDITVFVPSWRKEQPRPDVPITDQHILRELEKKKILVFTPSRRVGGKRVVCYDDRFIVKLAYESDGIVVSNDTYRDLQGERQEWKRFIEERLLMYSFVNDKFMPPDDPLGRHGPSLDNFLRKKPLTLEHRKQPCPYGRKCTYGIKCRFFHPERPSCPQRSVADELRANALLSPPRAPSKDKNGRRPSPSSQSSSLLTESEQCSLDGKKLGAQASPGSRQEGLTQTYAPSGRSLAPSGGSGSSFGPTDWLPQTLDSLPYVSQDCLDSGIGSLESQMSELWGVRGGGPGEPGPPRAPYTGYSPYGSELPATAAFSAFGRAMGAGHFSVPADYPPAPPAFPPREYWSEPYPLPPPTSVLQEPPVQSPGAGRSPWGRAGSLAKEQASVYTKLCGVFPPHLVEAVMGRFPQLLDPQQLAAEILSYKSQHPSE
UniProt Q53FA7: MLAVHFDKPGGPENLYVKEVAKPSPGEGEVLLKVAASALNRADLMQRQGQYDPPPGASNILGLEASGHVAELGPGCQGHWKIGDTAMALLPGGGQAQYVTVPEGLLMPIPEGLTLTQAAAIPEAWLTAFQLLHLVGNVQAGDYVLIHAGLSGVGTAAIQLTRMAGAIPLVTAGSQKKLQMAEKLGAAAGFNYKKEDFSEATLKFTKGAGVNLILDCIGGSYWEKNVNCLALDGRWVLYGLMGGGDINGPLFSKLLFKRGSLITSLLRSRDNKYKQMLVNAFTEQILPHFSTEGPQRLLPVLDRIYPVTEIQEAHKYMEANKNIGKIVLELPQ
UniProt Q6DKK2: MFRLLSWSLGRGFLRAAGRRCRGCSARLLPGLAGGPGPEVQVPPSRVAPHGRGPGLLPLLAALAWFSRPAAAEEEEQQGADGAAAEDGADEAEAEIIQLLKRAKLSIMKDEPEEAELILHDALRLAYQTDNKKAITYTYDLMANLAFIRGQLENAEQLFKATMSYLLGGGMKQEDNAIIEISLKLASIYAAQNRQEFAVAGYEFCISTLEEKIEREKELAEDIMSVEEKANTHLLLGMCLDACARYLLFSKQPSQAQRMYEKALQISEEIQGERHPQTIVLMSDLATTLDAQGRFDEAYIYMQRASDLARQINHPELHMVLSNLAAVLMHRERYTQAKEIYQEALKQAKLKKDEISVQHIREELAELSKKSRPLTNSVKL

Compound: Nc1ncnc2c1ncn2[C@@H]1O[C@H](COP(=O)(O)OP(=O)(O)OP(=O)(O)O)[C@@H](O)[C@H]1O [adenosine triphosphate]
Experiment: NP40-soluble protein abundance relative to vehicle (solubility fold change) (ratio); higher = more soluble protein in presence of ATP
How it was run: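 In three independent experiments, Jurkat crude lysate made by Dounce homogenisation was treated for 10 min at room temperature and then 3 min at 37 °C with eight concentrations ranging from 0.1 to 10 mM. It was then solubilised with 0.8% NP40 plus benzonase for 60 min at 4 °C and ultracentrifuged. The supernatant was TMT-labelled for LC-MS/MS, and each value is the fold change against the detergent-processed vehicle for the same replicate, using vsn-normalised intensities.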

In the case of MED27 (UniProt Q6P2C8), the NP40-soluble protein abundance (concentration: 0.1mM) is reported as 0.969 ± 0.11 and the NP40-soluble protein abundance (concentration: 0.5mM) is reported as 0.985 ± 0.15.
In the case of TOR2A (UniProt Q5JU69), the NP40-soluble protein abundance (concentration: 0.1mM) is reported as 1.06 ± 0.029 and the NP40-soluble protein abundance (concentration: 0.5mM) is reported as 0.95 ± 0.078.
With UniProt Q5T0F9 and related entries the NP40-soluble protein abundance (concentration: 0.1mM) was 1.02 ± 0.039 and the NP40-soluble protein abundance (concentration: 0.5mM) was 1.01 ± 0.052.
For UniProt Q5JSZ5, the NP40-soluble protein abundance (concentration: 0.1mM) was 0.99 ± 0.09 and the NP40-soluble protein abundance (concentration: 0.5mM) was 0.999 ± 0.065.
“Q5VYH9 and related entries (UniProt Q9HBG7)” gave an NP40-soluble protein abundance (concentration: 0.1mM) of 0.957 ± 0.081 and an NP40-soluble protein abundance (concentration: 0.5mM) of 0.939 ± 0.064.
For UniProt Q5T4S7 and related entries, the NP40-soluble protein abundance (concentration: 0.1mM) was 0.993 ± 0.036 and the NP40-soluble protein abundance (concentration: 0.5mM) was 1 ± 0.056.
DENND1B (UniProt Q6P3S1) was tested, and the NP40-soluble protein abundance (concentration: 0.1mM) was 1.07 ± 0.046 and the NP40-soluble protein abundance (concentration: 0.5mM) was 1.02 ± 0.039.
UniProt Q6P1X6 and related entries was tested, and the NP40-soluble protein abundance (concentration: 0.1mM) was 1.04 ± 0.051 and the NP40-soluble protein abundance (concentration: 0.5mM) was 0.966 ± 0.051.
Target UniProt Q562F6 and related entries has an NP40-soluble protein abundance (concentration: 0.1mM) of 0.969 ± 0.073 and an NP40-soluble protein abundance (concentration: 0.5mM) of 1.03 ± 0.046.
ARID2 (UniProt Q68CP9) gave an NP40-soluble protein abundance (concentration: 0.1mM) of 1.03 ± 0.04 and an NP40-soluble protein abundance (concentration: 0.5mM) of 1.16 ± 0.056.
UniProt Q5MNZ6 was tested, and the NP40-soluble protein abundance (concentration: 0.1mM) was 1.07 ± 0.12 and the NP40-soluble protein abundance (concentration: 0.5mM) was 1 ± 0.075.
PRPF8 (UniProt Q6P2Q9) was tested, and the NP40-soluble protein abundance (concentration: 0.1mM) was 1.03 ± 0.037 and the NP40-soluble protein abundance (concentration: 0.5mM) was 1.051 ± 0.0033.
BEND3 (UniProt Q5T5X7) was tested, and the NP40-soluble protein abundance (concentration: 0.1mM) was 1 ± 0.069 and the NP40-soluble protein abundance (concentration: 0.5mM) was 0.979 ± 0.034.
UniProt Q5MIZ7-2|Q5MIZ7-3 gave an NP40-soluble protein abundance (concentration: 0.1mM) of 1.01 ± 0.011 and an NP40-soluble protein abundance (concentration: 0.5mM) of 1.02 ± 0.065.
Target MIA3 (UniProt Q5JRA6) has an NP40-soluble protein abundance (concentration: 0.1mM) of 0.978 ± 0.019 and an NP40-soluble protein abundance (concentration: 0.5mM) of 0.986 ± 0.024.
Work on UniProt Q6P996 and related entries yielded an NP40-soluble protein abundance (concentration: 0.1mM) of 1.05 ± 0.038 and an NP40-soluble protein abundance (concentration: 0.5mM) of 1.04 ± 0.063.
“Q5VZU9 and related entries (UniProt P29144)” showed an NP40-soluble protein abundance (concentration: 0.1mM) of 1.05 ± 0.069 and an NP40-soluble protein abundance (concentration: 0.5mM) of 1.06 ± 0.051.
EAPP (UniProt Q56P03) gave an NP40-soluble protein abundance (concentration: 0.1mM) of 0.999 ± 0.057 and an NP40-soluble protein abundance (concentration: 0.5mM) of 0.99 ± 0.03.
Work on UniProt Q5T440 yielded an NP40-soluble protein abundance (concentration: 0.1mM) of 1.04 ± 0.037 and an NP40-soluble protein abundance (concentration: 0.5mM) of 1.005 ± 0.01.
In the case of UniProt Q6P499, the NP40-soluble protein abundance (concentration: 0.1mM) is reported as 0.951 ± 0.059 and the NP40-soluble protein abundance (concentration: 0.5mM) is reported as 1.01 ± 0.06.
In the case of UniProt Q5VYS8 and related entries, the NP40-soluble protein abundance (concentration: 0.1mM) is reported as 1.06 ± 0.014 and the NP40-soluble protein abundance (concentration: 0.5mM) is reported as 1.06 ± 0.039.
THOC7 (UniProt Q6I9Y2) gave an NP40-soluble protein abundance (concentration: 0.1mM) of 1.01 ± 0.091, an NP40-soluble protein abundance (concentration: 0.5mM) of 1.22 ± 0.1 and an NP40-soluble protein abundance (concentration: 1mM) of 1.4 ± 0.11. The NP40-soluble protein abundance (concentration: 2mM) was 1.5 ± 0.15, the NP40-soluble protein abundance (concentration: 4mM) was 1.73 ± 0.19 and the NP40-soluble protein abundance (concentration: 6mM) was 1.95 ± 0.38. It also gave an NP40-soluble protein abundance (concentration: 8mM) of 2.12 ± 0.2 and an NP40-soluble protein abundance (concentration: 10mM) of 2.03 ± 0.26.
ZC3H12A (UniProt Q5D1E8) was tested, and the NP40-soluble protein abundance (concentration: 0.1mM) was 1.08 ± 0.12, the NP40-soluble protein abundance (concentration: 0.5mM) was 1.01 ± 0.038 and the NP40-soluble protein abundance (concentration: 1mM) was 0.982 ± 0.088. For the same target, the NP40-soluble protein abundance (concentration: 2mM) was 1.05 ± 0.089, the NP40-soluble protein abundance (concentration: 4mM) was 0.988 ± 0.11 and the NP40-soluble protein abundance (concentration: 6mM) was 1.02 ± 0.085. For the same target, the NP40-soluble protein abundance (concentration: 8mM) was 1.02 ± 0.084 and the NP40-soluble protein abundance (concentration: 10mM) was 0.943 ± 0.11.
For PITRM1 (UniProt Q5JRX3), the NP40-soluble protein abundance (concentration: 0.1mM) was 1.03 ± 0.056 and the NP40-soluble protein abundance (concentration: 0.5mM) was 1.04 ± 0.069.
Target UniProt Q5JUR7 has an NP40-soluble protein abundance (concentration: 0.1mM) of 1.06 ± 0.11, an NP40-soluble protein abundance (concentration: 0.5mM) of 1.03 ± 0.072 and an NP40-soluble protein abundance (concentration: 1mM) of 1 ± 0.077. It also gave an NP40-soluble protein abundance (concentration: 2mM) of 1.07 ± 0.12, an NP40-soluble protein abundance (concentration: 4mM) of 1.04 ± 0.029 and an NP40-soluble protein abundance (concentration: 6mM) of 1.02 ± 0.13. The NP40-soluble protein abundance (concentration: 8mM) was 1.05 ± 0.087 and the NP40-soluble protein abundance (concentration: 10mM) was 1.06 ± 0.062.
UniProt Q6NUQ4 and related entries gave an NP40-soluble protein abundance (concentration: 0.1mM) of 0.993 ± 0.024 and an NP40-soluble protein abundance (concentration: 0.5mM) of 1.03 ± 0.022.
Work on RNF20 (UniProt Q5VTR2) yielded an NP40-soluble protein abundance (concentration: 0.1mM) of 0.994 ± 0.015, an NP40-soluble protein abundance (concentration: 0.5mM) of 1 ± 0.054 and an NP40-soluble protein abundance (concentration: 1mM) of 0.962 ± 0.05. For the same target, the NP40-soluble protein abundance (concentration: 2mM) was 0.961 ± 0.02, the NP40-soluble protein abundance (concentration: 4mM) was 0.935 ± 0.024 and the NP40-soluble protein abundance (concentration: 6mM) was 0.997 ± 0.041. It also gave an NP40-soluble protein abundance (concentration: 8mM) of 0.935 ± 0.019 and an NP40-soluble protein abundance (concentration: 10mM) of 0.933 ± 0.017.
In the case of TRMT12 (UniProt Q53H54), the NP40-soluble protein abundance (concentration: 0.1mM) is reported as 1.03 ± 0.033 and the NP40-soluble protein abundance (concentration: 0.5mM) is reported as 1.04 ± 0.062.
Work on UniProt Q5GLZ8 and related entries yielded an NP40-soluble protein abundance (concentration: 0.1mM) of 1.06 ± 0.092 and an NP40-soluble protein abundance (concentration: 0.5mM) of 1.06 ± 0.037.
In the case of UniProt Q53HC0 and related entries, the NP40-soluble protein abundance (concentration: 0.1mM) is reported as 0.9985 ± 0.0087, the NP40-soluble protein abundance (concentration: 0.5mM) is reported as 0.982 ± 0.068 and the NP40-soluble protein abundance (concentration: 1mM) is reported as 0.993 ± 0.083. For the same target, the NP40-soluble protein abundance (concentration: 2mM) was 0.918 ± 0.031, the NP40-soluble protein abundance (concentration: 4mM) was 0.939 ± 0.082 and the NP40-soluble protein abundance (concentration: 6mM) was 0.993 ± 0.21. The NP40-soluble protein abundance (concentration: 8mM) was 0.966 ± 0.092 and the NP40-soluble protein abundance (concentration: 10mM) was 0.922 ± 0.084.
FAM117B (UniProt Q6P1L5) gave an NP40-soluble protein abundance (concentration: 0.1mM) of 0.982 ± 0.057, an NP40-soluble protein abundance (concentration: 0.5mM) of 0.976 ± 0.049 and an NP40-soluble protein abundance (concentration: 1mM) of 0.945 ± 0.048. For the same target, the NP40-soluble protein abundance (concentration: 2mM) was 0.984 ± 0.061, the NP40-soluble protein abundance (concentration: 4mM) was 0.97 ± 0.039 and the NP40-soluble protein abundance (concentration: 6mM) was 0.978 ± 0.042. For the same target, the NP40-soluble protein abundance (concentration: 8mM) was 0.952 ± 0.069 and the NP40-soluble protein abundance (concentration: 10mM) was 0.946 ± 0.032.
TP53I3 (UniProt Q53FA7) gave an NP40-soluble protein abundance (concentration: 0.1mM) of 0.978 ± 0.015 and an NP40-soluble protein abundance (concentration: 0.5mM) of 0.992 ± 0.036.
In the case of TTC19 (UniProt Q6DKK2), the NP40-soluble protein abundance (concentration: 0.1mM) is reported as 0.929 ± 0.097, the NP40-soluble protein abundance (concentration: 0.5mM) is reported as 0.869 ± 0.11 and the NP40-soluble protein abundance (concentration: 1mM) is reported as 0.971 ± 0.078. It also gave an NP40-soluble protein abundance (concentration: 2mM) of 0.922 ± 0.037, an NP40-soluble protein abundance (concentration: 4mM) of 0.973 ± 0.043 and an NP40-soluble protein abundance (concentration: 6mM) of 0.923 ± 0.04. The NP40-soluble protein abundance (concentration: 8mM) was 0.985 ± 0.038 and the NP40-soluble protein abundance (concentration: 10mM) was 0.865 ± 0.094.
Work on UniProt Q6P444 yielded an NP40-soluble protein abundance (concentration: 0.1mM) of 0.857 ± 0.091 and an NP40-soluble protein abundance (concentration: 0.5mM) of 0.926 ± 0.027.
In the case of UniProt Q53GS7 and related entries, the NP40-soluble protein abundance (concentration: 0.1mM) is reported as 1.13 ± 0.14, the NP40-soluble protein abundance (concentration: 0.5mM) is reported as 1.12 ± 0.06 and the NP40-soluble protein abundance (concentration: 1mM) is reported as 1.18 ± 0.079. For the same target, the NP40-soluble protein abundance (concentration: 2mM) was 1.19 ± 0.12, the NP40-soluble protein abundance (concentration: 4mM) was 1.39 ± 0.24 and the NP40-soluble protein abundance (concentration: 6mM) was 1.54 ± 0.24. For the same target, the NP40-soluble protein abundance (concentration: 8mM) was 1.52 ± 0.2 and the NP40-soluble protein abundance (concentration: 10mM) was 1.71 ± 0.23.
With UniProt Q5T200 and related entries the NP40-soluble protein abundance (concentration: 0.1mM) was 1.01 ± 0.046, the NP40-soluble protein abundance (concentration: 0.5mM) was 1.03 ± 0.051 and the NP40-soluble protein abundance (concentration: 1mM) was 1.04 ± 0.057. The NP40-soluble protein abundance (concentration: 2mM) was 1.1 ± 0.056, the NP40-soluble protein abundance (concentration: 4mM) was 1.15 ± 0.077 and the NP40-soluble protein abundance (concentration: 6mM) was 1.22 ± 0.094. It also gave an NP40-soluble protein abundance (concentration: 8mM) of 1.21 ± 0.086 and an NP40-soluble protein abundance (concentration: 10mM) of 1.29 ± 0.093.
